The other results are listed elsewhere or left out.
Columns and labels:
Test in all cases: log2 fold change, soluble protein after heating vs DMSO (PISA); higher = thermal stabilisation; K562 lysate, 10 uM; active = over 0.2 and 3.5 SD of the protein, either way, in both replicates (recomputed)
[1] = compound: C1=CC=C(C=C1)[C@H](COC2=CC3=C(C=C2)NC(=O)N3)NC(=O)C4=CC=CN(C4=O)CC5=CC(=C(C=C5)F)F
In short: (§1)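 K562 pellets were dounce-homogenised in PBS pH 7.4 containing 1 mM MgCl2, and the crude extract, at 1 mg/mL protein, was exposed to 10 μM compound for 30 min. Aliquots were heated for 3 min across 48°C-58°C, pooled, brought to 0.5% NP-40 at 4°C and spun at 21,000xg for 90 min, with the supernatant taken as soluble protein. TMTpro 16plex LC-MS/MS with equalised channel sums quantified that protein. Values are log-two fold changes in thermal stability relative to solvent controls, taken from duplicates.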

The chains behind the UniProt entries cited, without tags or fusion partners. Where a name states a change or a piece, a line headed by the entry shows the natural chain unless it says otherwise.
UniProt Q92917: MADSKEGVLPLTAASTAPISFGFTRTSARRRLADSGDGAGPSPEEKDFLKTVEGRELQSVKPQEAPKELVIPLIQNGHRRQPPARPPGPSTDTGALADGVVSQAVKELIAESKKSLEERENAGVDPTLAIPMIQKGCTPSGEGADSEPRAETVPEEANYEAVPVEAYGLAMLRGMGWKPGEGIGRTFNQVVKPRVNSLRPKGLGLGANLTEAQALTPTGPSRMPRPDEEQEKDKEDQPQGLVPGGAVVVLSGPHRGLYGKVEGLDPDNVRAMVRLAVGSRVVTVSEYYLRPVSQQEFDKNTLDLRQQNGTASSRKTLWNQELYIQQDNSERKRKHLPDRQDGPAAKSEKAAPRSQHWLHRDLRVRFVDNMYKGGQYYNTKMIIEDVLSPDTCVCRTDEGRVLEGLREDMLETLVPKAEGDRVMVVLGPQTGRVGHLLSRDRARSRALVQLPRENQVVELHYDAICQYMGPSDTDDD
UniProt Q9HC38: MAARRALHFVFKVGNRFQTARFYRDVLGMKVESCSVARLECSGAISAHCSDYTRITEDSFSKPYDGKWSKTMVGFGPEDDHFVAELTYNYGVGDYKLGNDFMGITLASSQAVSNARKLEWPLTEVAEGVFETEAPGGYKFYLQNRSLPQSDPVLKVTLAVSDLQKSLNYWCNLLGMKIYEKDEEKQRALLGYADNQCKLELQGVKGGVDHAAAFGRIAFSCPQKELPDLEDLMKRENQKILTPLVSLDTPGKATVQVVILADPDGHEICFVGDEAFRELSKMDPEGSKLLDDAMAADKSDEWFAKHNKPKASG
UniProt P15586: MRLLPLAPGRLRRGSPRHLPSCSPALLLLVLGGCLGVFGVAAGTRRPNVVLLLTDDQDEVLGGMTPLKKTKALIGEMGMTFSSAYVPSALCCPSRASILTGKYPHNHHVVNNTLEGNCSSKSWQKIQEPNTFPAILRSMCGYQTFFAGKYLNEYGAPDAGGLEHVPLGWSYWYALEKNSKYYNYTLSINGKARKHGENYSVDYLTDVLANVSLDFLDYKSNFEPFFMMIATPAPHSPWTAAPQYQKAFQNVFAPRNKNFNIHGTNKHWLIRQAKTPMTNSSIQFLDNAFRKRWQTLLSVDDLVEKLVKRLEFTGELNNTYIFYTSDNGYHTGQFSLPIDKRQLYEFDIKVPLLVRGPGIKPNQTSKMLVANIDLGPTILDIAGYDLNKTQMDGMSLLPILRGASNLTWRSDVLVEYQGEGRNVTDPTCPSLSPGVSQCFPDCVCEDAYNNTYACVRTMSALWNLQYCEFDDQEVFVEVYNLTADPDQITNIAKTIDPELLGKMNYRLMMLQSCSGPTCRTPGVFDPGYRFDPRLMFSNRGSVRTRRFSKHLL
UniProt P81274: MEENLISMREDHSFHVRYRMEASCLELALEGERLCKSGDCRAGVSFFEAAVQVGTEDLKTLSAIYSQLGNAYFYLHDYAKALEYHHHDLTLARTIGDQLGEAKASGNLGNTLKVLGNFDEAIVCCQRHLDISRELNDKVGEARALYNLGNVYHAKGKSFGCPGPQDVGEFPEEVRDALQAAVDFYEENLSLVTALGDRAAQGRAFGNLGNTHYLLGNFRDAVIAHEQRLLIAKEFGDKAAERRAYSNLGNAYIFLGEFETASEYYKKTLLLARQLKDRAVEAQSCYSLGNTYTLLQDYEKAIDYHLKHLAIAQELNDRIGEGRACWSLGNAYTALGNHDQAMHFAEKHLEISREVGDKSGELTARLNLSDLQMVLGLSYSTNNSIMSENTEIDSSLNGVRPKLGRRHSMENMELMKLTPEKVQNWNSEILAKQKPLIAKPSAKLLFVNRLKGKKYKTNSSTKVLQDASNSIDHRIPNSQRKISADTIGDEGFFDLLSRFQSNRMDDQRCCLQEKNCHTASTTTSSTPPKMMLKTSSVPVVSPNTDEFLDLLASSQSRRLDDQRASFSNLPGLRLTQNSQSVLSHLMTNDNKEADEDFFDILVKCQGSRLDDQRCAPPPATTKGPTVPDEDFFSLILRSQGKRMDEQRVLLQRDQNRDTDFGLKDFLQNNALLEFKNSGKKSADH
UniProt Q9H3K2: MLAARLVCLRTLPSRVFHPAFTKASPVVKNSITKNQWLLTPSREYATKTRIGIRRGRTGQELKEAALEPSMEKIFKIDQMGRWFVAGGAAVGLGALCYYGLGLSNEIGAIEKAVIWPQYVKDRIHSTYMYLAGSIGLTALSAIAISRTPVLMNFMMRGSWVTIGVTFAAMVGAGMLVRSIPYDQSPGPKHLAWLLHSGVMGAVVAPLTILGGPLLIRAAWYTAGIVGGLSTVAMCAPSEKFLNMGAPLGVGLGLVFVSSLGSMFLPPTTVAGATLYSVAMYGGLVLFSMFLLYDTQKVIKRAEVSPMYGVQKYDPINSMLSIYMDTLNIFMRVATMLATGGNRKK
UniProt P16520, whole entry, looked up: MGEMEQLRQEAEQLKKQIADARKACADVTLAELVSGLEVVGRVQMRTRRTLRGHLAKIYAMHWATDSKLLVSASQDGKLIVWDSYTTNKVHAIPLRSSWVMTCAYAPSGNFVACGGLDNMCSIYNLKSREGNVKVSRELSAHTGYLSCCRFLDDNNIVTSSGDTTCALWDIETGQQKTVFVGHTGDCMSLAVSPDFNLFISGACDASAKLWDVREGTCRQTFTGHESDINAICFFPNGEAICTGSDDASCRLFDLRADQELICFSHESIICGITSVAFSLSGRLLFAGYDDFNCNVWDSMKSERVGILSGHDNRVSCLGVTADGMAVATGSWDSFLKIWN
UniProt Q8IVV7: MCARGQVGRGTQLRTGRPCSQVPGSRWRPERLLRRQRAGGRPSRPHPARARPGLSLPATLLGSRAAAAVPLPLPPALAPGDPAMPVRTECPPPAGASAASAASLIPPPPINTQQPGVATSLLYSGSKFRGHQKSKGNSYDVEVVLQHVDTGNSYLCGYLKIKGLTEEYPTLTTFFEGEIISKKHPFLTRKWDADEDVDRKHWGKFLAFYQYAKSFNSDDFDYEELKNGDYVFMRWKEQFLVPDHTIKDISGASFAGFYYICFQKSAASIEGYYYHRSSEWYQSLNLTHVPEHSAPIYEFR
UniProt P60983, whole entry, looked up: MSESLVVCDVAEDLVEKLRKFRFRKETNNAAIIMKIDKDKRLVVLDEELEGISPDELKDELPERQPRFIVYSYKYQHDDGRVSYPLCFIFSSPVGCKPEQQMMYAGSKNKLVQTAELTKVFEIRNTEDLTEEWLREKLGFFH
UniProt Q9NVN8: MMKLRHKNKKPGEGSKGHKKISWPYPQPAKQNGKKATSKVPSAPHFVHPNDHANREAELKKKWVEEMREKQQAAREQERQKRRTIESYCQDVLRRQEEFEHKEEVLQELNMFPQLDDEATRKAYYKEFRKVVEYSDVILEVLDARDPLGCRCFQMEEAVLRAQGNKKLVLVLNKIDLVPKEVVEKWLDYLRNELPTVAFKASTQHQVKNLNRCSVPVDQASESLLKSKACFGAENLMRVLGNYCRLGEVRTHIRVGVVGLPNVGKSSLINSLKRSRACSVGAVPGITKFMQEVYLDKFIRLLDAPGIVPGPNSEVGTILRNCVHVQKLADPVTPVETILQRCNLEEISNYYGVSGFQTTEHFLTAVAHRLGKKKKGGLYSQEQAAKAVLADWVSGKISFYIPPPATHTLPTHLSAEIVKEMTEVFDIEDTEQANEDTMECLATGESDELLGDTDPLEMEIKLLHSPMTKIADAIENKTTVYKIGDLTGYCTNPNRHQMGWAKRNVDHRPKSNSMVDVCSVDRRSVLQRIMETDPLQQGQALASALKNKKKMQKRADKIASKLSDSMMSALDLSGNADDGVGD
UniProt P16278: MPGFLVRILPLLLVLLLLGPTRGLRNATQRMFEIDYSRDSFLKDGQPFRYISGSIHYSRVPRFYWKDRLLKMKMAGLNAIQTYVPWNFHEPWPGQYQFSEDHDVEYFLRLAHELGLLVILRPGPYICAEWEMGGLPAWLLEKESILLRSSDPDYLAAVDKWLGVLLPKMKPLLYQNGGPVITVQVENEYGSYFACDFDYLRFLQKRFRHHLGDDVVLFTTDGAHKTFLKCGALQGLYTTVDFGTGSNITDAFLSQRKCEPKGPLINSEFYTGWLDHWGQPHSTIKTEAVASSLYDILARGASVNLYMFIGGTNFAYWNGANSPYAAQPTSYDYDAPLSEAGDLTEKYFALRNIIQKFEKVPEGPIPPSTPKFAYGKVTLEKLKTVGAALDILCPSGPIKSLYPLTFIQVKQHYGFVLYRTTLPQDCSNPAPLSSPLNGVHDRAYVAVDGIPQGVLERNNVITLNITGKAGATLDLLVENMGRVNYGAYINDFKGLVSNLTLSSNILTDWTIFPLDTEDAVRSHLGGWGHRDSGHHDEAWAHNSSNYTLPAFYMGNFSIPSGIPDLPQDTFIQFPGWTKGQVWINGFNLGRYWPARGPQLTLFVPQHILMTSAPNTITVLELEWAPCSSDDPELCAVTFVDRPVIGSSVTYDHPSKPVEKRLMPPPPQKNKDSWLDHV
UniProt Q9H3C7, whole entry, looked up: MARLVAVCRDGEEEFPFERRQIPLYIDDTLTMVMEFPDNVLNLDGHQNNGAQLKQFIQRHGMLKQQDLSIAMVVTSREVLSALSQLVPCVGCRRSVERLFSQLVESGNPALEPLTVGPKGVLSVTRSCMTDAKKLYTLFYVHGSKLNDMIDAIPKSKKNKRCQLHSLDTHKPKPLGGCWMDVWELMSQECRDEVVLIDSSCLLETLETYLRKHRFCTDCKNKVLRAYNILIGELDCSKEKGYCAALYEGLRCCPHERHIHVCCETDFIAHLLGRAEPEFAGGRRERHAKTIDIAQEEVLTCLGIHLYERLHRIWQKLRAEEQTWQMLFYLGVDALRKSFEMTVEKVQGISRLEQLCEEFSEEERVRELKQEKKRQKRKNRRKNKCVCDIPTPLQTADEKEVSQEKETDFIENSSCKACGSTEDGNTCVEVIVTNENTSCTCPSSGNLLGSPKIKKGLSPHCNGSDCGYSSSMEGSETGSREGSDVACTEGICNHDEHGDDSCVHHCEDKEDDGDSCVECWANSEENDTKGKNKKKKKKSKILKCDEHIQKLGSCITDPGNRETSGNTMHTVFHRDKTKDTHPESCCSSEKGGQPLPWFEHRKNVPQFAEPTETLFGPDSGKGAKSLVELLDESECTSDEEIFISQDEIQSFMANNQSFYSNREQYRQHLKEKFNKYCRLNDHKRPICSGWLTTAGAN
UniProt Q9NS18: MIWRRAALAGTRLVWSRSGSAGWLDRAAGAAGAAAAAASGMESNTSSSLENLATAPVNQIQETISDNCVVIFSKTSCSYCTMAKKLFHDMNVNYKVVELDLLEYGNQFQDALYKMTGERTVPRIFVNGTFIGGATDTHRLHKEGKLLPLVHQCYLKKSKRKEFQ
UniProt Q53EU6: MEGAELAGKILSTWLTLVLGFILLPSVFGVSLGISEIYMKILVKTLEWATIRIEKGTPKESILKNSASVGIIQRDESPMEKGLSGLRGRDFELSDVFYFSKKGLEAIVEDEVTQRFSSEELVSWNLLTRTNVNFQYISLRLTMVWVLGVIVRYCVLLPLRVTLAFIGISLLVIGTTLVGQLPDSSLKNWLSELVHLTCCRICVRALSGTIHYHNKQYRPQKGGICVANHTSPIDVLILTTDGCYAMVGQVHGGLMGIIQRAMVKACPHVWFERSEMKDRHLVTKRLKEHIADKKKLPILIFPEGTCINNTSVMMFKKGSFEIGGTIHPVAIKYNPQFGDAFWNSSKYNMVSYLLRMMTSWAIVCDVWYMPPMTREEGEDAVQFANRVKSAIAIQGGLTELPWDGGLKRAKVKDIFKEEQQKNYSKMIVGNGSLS
UniProt O95249: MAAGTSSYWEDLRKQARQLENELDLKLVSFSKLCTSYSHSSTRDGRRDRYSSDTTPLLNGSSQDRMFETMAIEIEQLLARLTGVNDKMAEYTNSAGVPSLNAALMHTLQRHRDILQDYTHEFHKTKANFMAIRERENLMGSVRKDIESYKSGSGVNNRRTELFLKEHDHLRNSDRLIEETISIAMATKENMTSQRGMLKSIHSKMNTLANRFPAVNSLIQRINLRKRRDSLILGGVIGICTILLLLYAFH
UniProt P19440: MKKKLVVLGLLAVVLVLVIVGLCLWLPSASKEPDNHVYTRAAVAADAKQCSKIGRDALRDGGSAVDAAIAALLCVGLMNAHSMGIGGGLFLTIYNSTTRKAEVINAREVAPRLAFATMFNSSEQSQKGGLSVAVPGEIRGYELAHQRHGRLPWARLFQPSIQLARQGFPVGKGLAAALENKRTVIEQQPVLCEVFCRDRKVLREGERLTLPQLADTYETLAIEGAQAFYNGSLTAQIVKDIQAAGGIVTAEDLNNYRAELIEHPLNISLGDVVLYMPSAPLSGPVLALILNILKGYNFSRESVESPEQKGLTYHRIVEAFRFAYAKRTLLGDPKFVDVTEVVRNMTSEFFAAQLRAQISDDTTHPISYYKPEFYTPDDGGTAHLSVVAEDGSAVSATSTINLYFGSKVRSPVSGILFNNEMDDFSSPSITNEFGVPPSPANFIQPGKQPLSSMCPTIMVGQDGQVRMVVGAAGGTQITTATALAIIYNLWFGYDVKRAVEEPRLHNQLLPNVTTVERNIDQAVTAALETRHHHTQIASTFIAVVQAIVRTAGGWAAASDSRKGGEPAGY

[2] = compound: CC1=C(SC2=C1C(=N[C@H](C3=NN=C(N32)C)CC(=O)N)C4=CC=C(C=C4)Cl)C
In short: as §1

[3] = compound: CC1=C2C(=CC=C1)N=C(N(C2=O)C3=CC=CC=C3C)CN4C=NC5=C(N=CN=C54)N
In short: as §1

[4] = compound: Cc1sc2c(c1C)C(c1ccc(Cl)cc1)=N[C@@H](CC(=O)OC(C)(C)C)c1nnc(C)n1-2
In short: as §1

[5] = compound: c1ccc([C@@H]2C[C@H]2NC2CCNCC2)cc1
In short: as §1

Measured: log2 fold change

GPKOW (UniProt Q92917)
inactive: [1] 0.051 | [2] -0.01 | [3] 0.011 | [4] 0.029 | [5] 0.07

GLOD4 isoform 2 (UniProt Q9HC38)
inactive: [1] -0.001 | [2] 0.025 | [3] -0.002 | [4] 0.004 | [5] 0.015

GNS (UniProt P15586)
inactive: [1] -0.01 | [2] 0.023 | [3] -0.012 | [4] 0.001 | [5] -0.054

GPSM2 (UniProt P81274)
inactive: [1] 0.07 | [2] 0.087 | [3] 0.054 | [4] -0.068 | [5] -0.101

GLRX5 (UniProt Q86SX6)
inactive: [1] -0.029 | [2] -0.043 | [3] -0.028 | [4] -0.203 | [5] -0.029

GHITM (UniProt Q9H3K2)
inactive: [1] 0.024 | [2] -0.014 | [3] 0.009 | [4] -0.001 | [5] -0.021

GPR108 (UniProt Q9NPR9)
inactive: [1] 0.059 | [2] -0.053 | [3] 0.005 | [4] -0.066 | [5] 0.014

GNB3 (UniProt P16520)
inactive: [1] 0.033 | [2] 0.041 | [3] 0.118 | [4] -0.082 | [5] -0.116

GNAI3 (UniProt P08754)
inactive: [1] -0.014 | [2] -0.005 | [3] -0.023 | [4] -0.036 | [5] 0.024

GID4 (UniProt Q8IVV7)
inactive: [1] -0.006 | [2] 0.075 | [3] 0.051 | [4] 0.029 | [5] 0.042

GMFG (UniProt O60234)
inactive: [1] 0.025 | [2] 0 | [3] 0.001 | [4] 0.01 | [5] 0.067

GMPR (UniProt P36959)
inactive: [1] -0.02 | [2] 0.015 | [3] 0.006 | [4] -0.046 | [5] 0.023

GPS1 isoform 6 (UniProt Q13098)
inactive: [1] 0.022 | [2] -0.009 | [3] -0.005 | [4] 0.018 | [5] -0.1

GMFB (UniProt P60983)
inactive: [1] -0.023 | [2] 0.01 | [3] -0.026 | [4] 0 | [5] 0.028

Two neighbouring records already listed, quoted:
GID4 (UniProt Q8IVV7)
inactive: [1] -0.006 | [2] 0.075 | [3] 0.051 | [4] 0.029 | [5] 0.042

GMFG (UniProt O60234)
inactive: [1] 0.025 | [2] 0 | [3] 0.001 | [4] 0.01 | [5] 0.067

More records follow:

GNL3L (UniProt Q9NVN8)
inactive: [1] 0 | [2] 0.009 | [3] 0.046 | [4] 0.161 | [5] -0.018

GLB1 (UniProt P16278)
inactive: [1] 0.02 | [2] 0.033 | [3] 0.046 | [4] 0.016 | [5] -0.019

GGNBP2 (UniProt Q9H3C7)
inactive: [1] 0.06 | [2] 0.087 | [3] 0.063 | [4] 0.013 | [5] 0.025

GLRX2 (UniProt Q9NS18)
inactive: [1] -0.069 | [2] 0.006 | [3] -0.021 | [4] 0.005 | [5] 0.026

GPAT3 (UniProt Q53EU6)
inactive: [1] 0.027 | [2] 0.05 | [3] 0.037 | [4] -0.013 | [5] -0.034

GOSR1 (UniProt O95249)
inactive: [1] -0.045 | [2] 0.022 | [3] 0.054 | [4] -0.022 | [5] 0.002

GID8 (UniProt Q9NWU2)
inactive: [1] 0.001 | [2] -0.029 | [3] -0.061 | [4] -0.037 | [5] 0.029

GIGYF2 (UniProt Q6Y7W6)
inactive: [1] 0.047 | [2] -0.054 | [3] 0.011 | [4] -0.076 | [5] 0.033

GPD2 (UniProt P43304)
inactive: [1] 0.031 | [2] 0.009 | [3] 0.014 | [4] -0.009 | [5] 0.003

GGT1 (UniProt P19440)
inactive: [1] -0.034 | [2] -0.05 | [3] 0.034 | [4] 0.015 | [5] -0.081

GINS2 (UniProt Q9Y248)
inactive: [1] -0.016 | [2] -0.006 | [3] -0.025 | [4] -0.004 | [5] -0.012
